This note sets out measurements from PubChem BioAssay AID493014 (National Center for Advancing Translational Sciences (NCATS), 2011).

Molecules are shown by their SMILES. Some of the results follow. Further columns of the screen follow, without active or inactive calls. The list favours compounds with an active or inconclusive main result. The note in brackets gives the kind of curve behind each potency; many fits are weak.

This test in a line: qHTS Assay to Find Inhibitors of Chronic Active B-Cell Receptor Signaling. The conditions noted are these: ABC-DLBCL IkBa-CBG/CBR reporter, luminescence ratio (green luciferase fused to IkBa over red control in TMD8 lymphoma cells), 4 h. A digest of the protocol:
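Doxycycline induced both beetle luciferases in TMD8 lymphoma cells; IKK-driven degradation limits the IkappaBalpha-fused green signal, while red luminescence normalises for cell number and nonspecific effects. Compounds tested up to 46 uM, 4 hrs.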
For orientation: qHTS replaces the single test concentration by a dilution series.

The mark [1] stands for this setting: measured here: CBR red luminescence, cell number.
The mark [2] stands for this setting: measured here: IkBa-CBG green luminescence.

The term AC50 denotes the concentration giving half of the maximal activity seen. As to `CCOc1cccc2cc(-c3nnc(NCc4ccco4)s3)c(=O)oc12`, the AC50 under setting [1] was 10 µM [falling, partial curve, poor fit]. Regarding `COc1c(C(=O)NNC(=O)c2ccccc2)csc1Br`, under setting [1], the AC50 is 12.6 µM [falling, partial curve, poor fit]. Take `Clc1ccccc1-c1nn2c(COc3ccccc3)nnc2s1`: the AC50 under setting [1] is 0.164 µM [rising, full curve]. Regarding `Cc1ccc2nc(Nc3nc(-c4ccccc4)cc(=O)[nH]3)nc(C)c2c1`, the AC50 under setting [1] is 35.5 µM [falling, single point]. Take `COc1ccc(C(=O)N(C)Cc2cnn(Cc3ccccc3)c2)cc1S(=O)(=O)N1CCOCC1`: the AC50 is 29.1 µM [rising, single point] under setting [1] and 16.4 µM [falling, partial curve, poor fit] under setting [2]. Take `O=C(Nc1ccc(OC(F)F)c(Cl)c1)c1ccccn1`: under setting [1], the AC50 is 10 µM [falling, single point]. In the case of `Nc1c(Cl)ncnc1N/N=C/c1ccccn1`, the AC50 was 29.1 µM [rising, single point] under setting [1] and 29.1 µM [falling, single point] under setting [2].

As to `O=C(NN=C1CCC(=NNC(=O)c2ccccn2)CC1)c1ccccn1`, under setting [1], the AC50 was 15.8 µM [falling, partial curve, poor fit]. On the same count and under the same terms, under `CCS(=O)(=O)N1CCC(NC(=O)C(Cc2cc(OC)ccc2OC)NC(C)=O)CC1` (stereo not drawn) stands 11.2 µM [rising, partial curve, poor fit]; under `COc1ccc(Cl)cc1C(=O)N1CCC2(CC1)CC(=O)c1ccccc1O2`, 8.2 µM [falling, partial curve]. Same read-out and setting: under `CCCC(=O)NC(c1ccccc1Cl)c1c(O)ccc2ccccc12` (stereo not drawn) stands 29.1 µM [falling, single point].

As for `COc1ccccc1NC(=O)/C=C/C(N)=O`, the AC50 is 25.9 µM [falling, partial curve, poor fit] under setting [1] and 18.4 µM [rising, partial curve, poor fit] under setting [2]. `CCCNC(=O)c1cccc(Br)c1`: the AC50 under setting [1] is 1 µM [rising, full curve, poor fit]. The same measure, in the same setting: under `O=C(CN1C(=O)COc2ccccc21)N1CCCc2ccccc21` stands 6.51 µM [falling, single point]; under `CCOc1ccc(C(=O)Nc2ccc(S(=O)(=O)NCC3CCCO3)cc2)cc1OCC` (stereo not drawn), 0.447 µM [rising, full curve, poor fit]; under `CCOc1ncccc1C(=O)NCC1COc2ccccc2O1` (stereo not drawn), 0.1 µM [falling, full curve, poor fit]. With `COc1ccc(C(=O)NCCSC2CCCCC2)cc1`, the AC50 under setting [1] is 16.4 µM [rising, partial curve, poor fit].

As to `CC(c1cc2ccccc2s1)N(O)C(N)=O` (stereo not drawn), the AC50 under setting [1] is 15.8 µM [rising, single point]. Same read-out and setting: under `Cc1ccccc1S(=O)(=O)Cc1ccc(C(=O)NCCN(CC(C)C)CC(C)C)o1` stands 17.8 µM [falling, single point]. `CCOc1ccc(NC(=O)CCSc2ccc3ccccc3n2)cc1`: the AC50 under setting [1] was 18.4 µM [rising, single point]. The same measure, in the same setting: the same measure for `COc1ccc(OC)c(CN2CCN(c3ccc(S(=O)(=O)N4CCCC4)cn3)CC2)c1`: 20.6 µM [falling, partial curve, poor fit]. With `CCOC(=O)C1CCN(C(=O)COc2ccc(Br)cc2Br)CC1`, the AC50 under setting [1] is 20 µM [falling, partial curve, poor fit].

With `Fc1ccccc1-c1nc(-c2ccncc2)no1`, under setting [1], the AC50 was 0.112 µM [rising, full curve, poor fit]. On to `CN1CCc2c(sc3c2C(=O)NC(c2ccco2)N3)C1` (stereo not drawn), for which the AC50 under setting [1] was 2 µM [falling, full curve, poor fit].

On to `CC1CC(C)CN(C(=O)c2cccc3c2-c2ccccc2C3=O)C1` (stereo not drawn), for which, under setting [1], the AC50 was 0.1 µM [rising, full curve, poor fit]. The same measure, in the same setting: the same measure for `Cc1onc(-c2ccccc2)c1C(=O)NNC(=S)NC(=O)c1ccc(F)cc1`: 25.9 µM [falling, single point]. Regarding `COc1ccccc1CN1C[C@@H]2C[C@@H](c3ccc(C)c(C)c3)N3CCC[C@@]23C1=O`, the AC50 under setting [2] is 35.5 µM [rising, partial curve, poor fit]. For `CN(c1ccccc1)c1nc(N)c([N+](=O)[O-])c(N2CCCCC2)n1`, the AC50 under setting [1] is 4.47 µM [rising, partial curve, poor fit]. Same read-out and setting: the same measure for `O=C(Nc1cccc(O)c1)C1CC(c2cccc(Br)c2)=NO1` (stereo not drawn): 20 µM [falling, partial curve, poor fit]; for `O=C(C(=O)N1CCN(c2ccc(F)cc2)CC1)c1c[nH]c2ccccc12`: 7.08 µM [falling, partial curve].

Consider `CCn1c(SCc2ccccc2F)nnc1-c1ccncc1`, for which the AC50 under setting [1] was 6.31 µM [rising, single point]. On the same count and under the same terms, the same measure for `CC(C)(C)c1nc(N)nc(=O)[nH]1`: 0.447 µM [falling, partial curve, poor fit]. On the same count and under the same terms, the same measure for `Cc1cccc2[nH]c3c(N4CC=C(c5ccc(F)cc5)CC4)ncnc3c12`: 35.5 µM [falling, single point]. As to `Cc1cc(N2CCOCC2)ccc1/C=C1\SC(=O)N(C(C)C)C1=O`, under setting [1], the AC50 is 1.58 µM [rising, partial curve]. On to `Cc1ccc(NC(=S)NNC(=O)c2ccccc2O)c(C)c1`, for which, under setting [1], the AC50 was 5.01 µM [falling, partial curve]. On the same count and under the same terms, under `CC(=O)C[C@H](O)CC(=O)[C@H]1OC(=O)CCCCCc2ccccc21` stands 32.6 µM [rising, single point]. Turning to `CC(=O)Nc1ccc(Cc2ccc3[nH]c(=O)cc(C)c3c2)cc1`, the AC50 under setting [1] is 0.794 µM [rising, full curve, poor fit]. Still for that read-out and setting: the same measure for `COCC(=O)N1CCC(Oc2ccc(C(=O)NCCCC3CCCC3)cc2)CC1`: 0.891 µM [falling, full curve]; for `COCCN(C(=O)Nc1ccccc1)C(C)c1cccnc1` (stereo not drawn): 0.0891 µM [rising, full curve, poor fit].

For the compound `Cc1ccc2c(c1)C(c1ccncc1)=NNC(c1ccccc1)=N2`, the AC50 under setting [1] was 15.8 µM [falling, single point]. Consider `O=C(Nc1nc(-c2ccccc2Cl)cs1)c1cccnc1`, for which the AC50 under setting [1] is 4.61 µM [falling, partial curve, poor fit]. On the same count and under the same terms, the same measure for `O=C(O)CN1C(=O)CSC1=S`: 31.6 µM [rising, single point].

With `COc1ccc(/C=C(/C#N)C(=O)Nc2cc(C)ccc2C)cc1C(=O)O`, the AC50 under setting [1] is 35.5 µM [falling, single point].

Take `Cc1ccc(C(=O)O)cc1NC(=S)NC(=O)c1ccc([N+](=O)[O-])cc1Cl`: the AC50 under setting [1] was 20.6 µM [falling, single point].

Turning to `CC(C)COC(=O)C1[C@H]2C(=O)N(Cc3cccs3)C[C@]23C=C[C@H]1O3` (stereo partly drawn), the AC50 under setting [1] was 20.6 µM [rising, single point]. Same read-out and setting: under `Cc1c(/C=N/Nc2nc3ccccc3[nH]2)c2ccccc2n1C` stands 35.5 µM [falling, single point]; under `CP(=O)(COC(=O)c1ccccc1)COC(=O)c1ccccc1`, 8.91 µM [falling, partial curve, poor fit]; under `CC(C)N1CCc2c(sc(NC(=O)c3ccc4ccccc4c3)c2C(N)=O)C1`, 15.8 µM [falling, single point].

Regarding `COCCn1cnnc1SCC(=O)Nc1sc2c(c1C#N)CCC2`, the AC50 under setting [1] was 6.51 µM [rising, single point]. On to `O=C(NC1CC(=O)N(c2ccc(Cl)cc2)C1)c1cc2ccccc2o1` (stereo not drawn), for which, under setting [1], the AC50 was 12.6 µM [rising, single point]. Same read-out and setting: the same measure for `CC#CC(=O)N1CCC(Oc2cccc(C(=O)NCc3ccccn3)c2)CC1`: 15.8 µM [falling, single point]; for `CC(CN1CCCCC1)OC(=O)c1cccc(F)c1` (stereo not drawn): 14.1 µM [rising, partial curve, poor fit]. Same read-out and setting: under `O=C(CCCOc1ccccc1)N1CCN(S(=O)(=O)c2cccs2)CC1` stands 6.51 µM [rising, single point]. In the case of `COc1cc(OC)c(OC)cc1/C=N/n1c(COc2ccccc2)n[nH]c1=S`, under setting [1], the AC50 is 0.0891 µM [rising, full curve, poor fit]. Same read-out and setting: the same measure for `O=C(NCCCn1ccnc1)Nc1cccc(Cl)c1`: 3.66 µM [rising, partial curve, poor fit]. Same read-out and setting: under `Cc1ccccc1-c1nc(-c2ccccn2)no1` stands 10 µM [falling, partial curve]; under `COc1cc(-c2n[nH]c(=S)n2-c2ccc(Br)cc2)cc(OC)c1OC`, 35.5 µM [rising, single point]; under `O=C(NCC(O)c1ccccc1)c1cccs1` (stereo not drawn), 12.6 µM [falling, partial curve, poor fit]. For the compound `Cc1c(C(=O)N2CCN(C)CC2)oc2c1C(=O)CC(C)(C)C2`, under setting [1], the AC50 was 0.731 µM [falling, partial curve, poor fit].

Turning to `O=C(Nc1nc2ccccc2[nH]1)c1ccc(F)cc1`, under setting [1], the AC50 is 1.78 µM [falling, full curve]. As for `CCN(c1ccccc1)S(=O)(=O)c1ccc(NC(=O)c2nc(S(C)(=O)=O)ncc2Cl)cc1`, the AC50 under setting [1] is 11.2 µM [falling, partial curve, poor fit]. Still for that read-out and setting: under `CC(NC(=O)c1cc2ccccc2o1)c1cccs1` (stereo not drawn) stands 9.2 µM [falling, partial curve, poor fit]; under `COc1ccc2c(CCNC(=O)CN3C(=O)c4ccccc4C3=O)c[nH]c2c1`, 20.6 µM [rising, partial curve, poor fit].

Take `S=C(NCc1ccccn1)Nc1ccc(Cl)cc1`: under setting [1], the AC50 was 35.5 µM [falling, single point]. Same read-out and setting: under `CSc1nnc(NC(=O)c2nc(S(=O)(=O)Cc3cccc(C)c3)ncc2Cl)s1` stands 22.4 µM [falling, single point].
